This note sets out measurements from US20260062447A1 (UNIVERSITY OF SOUTHAMPTON, priority 2022, published 2026).

The series in a line: general procedure: Fmoc solid-phase peptide synthesis; Wang resin pre-loaded with Fmoc amino acids (Fmoc-Leu-Wang resin); 2-chlorotrityl chloride resin; DIC / Oxyma Pure; cyclisation with HATU, HOAt and DIPEA. Conditions: whole synthesis; for final HPLC purity: Analytical HPLC; for final HPLC purity / isolated yield: scale of the general procedure 0.1 mmol.

For Cyclo-CL-Aib-F(CF3)IF(Br), the isolated mass was determined as 24.7 mg, the “final HPLC purity” value was 96% purity and the isolated yield is given as 28.9%.

Consider Cyclo-CLIF(CF)IF(Br), for which the isolated mass is reported as 4.5 mg, the “final HPLC purity” value came to 96% purity and the isolated yield stood at 5.1%.

Turning to Cyclo-CLL-Cha-VY, the isolated mass is listed as 3.0 mg and the “final HPLC purity” value was found to be 99%. In addition, the isolated yield (overall) was found to be 2.9%.

With Cyclo-CLL-Nal-VY, the isolated mass came out at 14.0 mg and the “final HPLC purity” value is on record as 92%. This substance also showed an isolated yield (overall) of 8.9%.

In the case of Cyclo-CLL-PAL-VY, the isolated mass is reported as 16.2 mg and the “final HPLC purity” value was 89%. Also, the isolated yield (overall) was 15.1%.

In the case of Cyclo-CLL-Phg-VY, the isolated mass is recorded as 22.3 mg and the “final HPLC purity” value is listed as 87%. Where the note is “overall”, this substance showed an isolated yield of 15.4%.

Consider Cyclo-CLL-dF-VY, for which the isolated mass is reported as 17.9 mg and the “final HPLC purity” value is reported as 94%. Further, the isolated yield (overall) was 14.8%.

Consider Cyclo-CLL-hCou-VY, for which the isolated mass is reported as 9.4 mg, the “final HPLC purity” value was found to be 91% purity and the isolated yield was 11.2%.

Regarding Cyclo-CLL-hF-VY, the isolated mass is on record as 29.5 mg and the “final HPLC purity” value was 87%. Further, the isolated yield (overall) is 19.3%.

As to Cyclo-CLLF(4-NO2)VY, the isolated mass turned out to be 11.5 mg and the “final HPLC purity” value worked out at 93%. Also, the isolated yield (overall) is reported as 10.1%.

In the case of Cyclo-CLLF(4-tBu)VY, the isolated mass turned out to be 16.6 mg and the “final HPLC purity” value was determined as 93%. The isolated yield (overall) is listed as 10.4%.

As to Cyclo-CLLF(Br) VY, the isolated mass is on record as 12.1 mg and the “final HPLC purity” value was 90%. This substance also came in with an isolated yield (overall) of 7.4%.

With Cyclo-CLLF(CF3)-Abu-F(Br), the isolated mass amounted to 32.9 mg, the “final HPLC purity” value came out at 99% and the isolated yield is given as 38.5%.

With Cyclo-CLLF(CF3)-Aib-F(Br), the isolated mass amounted to 3.3 mg, the “final HPLC purity” value came out at 89% and the isolated yield is reported as 3.86%.

Cyclo-CLLF(CF3)-hL-F(Br): the isolated mass amounted to 33.3 mg, the “final HPLC purity” value stood at 99% and the isolated yield was 18.6%.

In the case of Cyclo-CLLF(CF3)LF(Br), the isolated mass amounted to 25.9 mg, the “final HPLC purity” value is on record as 99% and the isolated yield was 29.4%.

With Cyclo-CLLF(CF3)V-4-Pal, the isolated mass stood at 24.7 mg and the “final HPLC purity” value came to 97%. This substance yielded an isolated yield (overall) of 15.6%.

Consider Cyclo-CLLF(CF3)V-Cha, for which the isolated mass worked out at 16.2 mg and the “final HPLC purity” value worked out at 97%. Also, the isolated yield (overall) stood at 10.2%.

With Cyclo-CLLF(CF3)V-Nal, the isolated mass was found to be 31.9 mg and the “final HPLC purity” value came to 99%. Also, the isolated yield (overall) was 19.0%.

Regarding Cyclo-CLLF(CF3)V-Phg, the isolated mass was found to be 16.1 mg and the “final HPLC purity” value was found to be 92%. In addition, for the setting “overall”, the isolated yield is recorded as 10.4%.

As for Cyclo-CLLF(CF3)V-hF, the isolated mass was 2.7 mg and the “final HPLC purity” value is given as 90%. Also, the isolated yield (overall) is reported as 1.7%.

Regarding Cyclo-CLLF(CF3)VF, the isolated mass is listed as 62.7 mg and the “final HPLC purity” value is 95%. Under “overall”, the isolated yield amounted to 39.7%.

For Cyclo-CLLF(CF3)VF(Br), the isolated mass turned out to be 8.3 mg and the “final HPLC purity” value is 99%. The substance further displayed an isolated yield (overall) of 4.8%.

Cyclo-CLLF(CF3)VF(C): the isolated mass is reported as 28.4 mg and the “final HPLC purity” value is reported as 99%. In addition, the isolated yield (overall) is recorded as 17.2%.

Cyclo-CLLF(CF3)VF(CF3): the isolated mass came out at 31.6 mg, the “final HPLC purity” value was found to be 99% and the isolated yield came out at 18.4%.

For the substance Cyclo-CLLF(CF3)VF(F), the isolated mass was 28.4 mg and the “final HPLC purity” value amounted to 95%. The isolated yield (overall) was found to be 17.6%.

Consider Cyclo-CLLF(CF3)VF(I), for which the isolated mass worked out at 19.8 mg and the “final HPLC purity” value amounted to 91%. Moreover, where the note is “overall”, the isolated yield was 10.8%.

As for Cyclo-CLLF(CF3)VF(NO2), the isolated mass turned out to be 20.0 mg, the “final HPLC purity” value came to 99% and the isolated yield amounted to 12.0%.

On to Cyclo-CLLF(CF3)VY [Cyclo-CLLF(CF3)VY], for which the isolated mass was 29.4 mg and the “final HPLC purity” value is listed as 90%. The same substance had an isolated yield (overall) of 18.2%.

Consider Cyclo-CLLF(CF3)VY(Me), for which the isolated mass came out at 9.2 mg and the “final HPLC purity” value worked out at 99%. Also, the isolated yield (overall) was 5.6%.

In the case of Cyclo-CLLF(CF3)—N-LEU-F(Br), the isolated mass turned out to be 15.2 mg, the “final HPLC purity” value is on record as 95% and the isolated yield was determined as 17.2%.

For Cyclo-CLLF(CF3)—NV—F(Br), the isolated mass is on record as 23.8 mg, the “final HPLC purity” value is 98% and the isolated yield turned out to be 27.4%.

Cyclo-CLLF(Cl)VY: the isolated mass is recorded as 8.5 mg and the “final HPLC purity” value came to 94%. For the setting “overall”, this substance registered an isolated yield of 7.1 V %.

Turning to Cyclo-CLLF(F)VY, the isolated mass is on record as 11.9 mg and the “final HPLC purity” value is recorded as 92° %. Also, for the setting “overall”, the isolated yield was found to be 10.9%.

Consider Cyclo-CLLF(I)VY, for which the isolated mass was 15.8 mg and the “final HPLC purity” value stood at 90%. This substance also registered an isolated yield (overall) of 9.1%.

On to Cyclo-CLLY(Me)VY, for which the isolated mass is given as 3.7 mg and the “final HPLC purity” value came to 90%. Under “overall”, the isolated yield came out at 3.3%.

As to Cyclo-CLLYVY, the isolated mass was found to be 25.1 mg and the “final HPLC purity” value was determined as 99%.

For Cyclo-CLVF(CF3)IF(Br), the isolated mass came to 0.4 mg, the “final HPLC purity” value is 97% and the isolated yield is recorded as 0.5%.
